# Values joined by “and” are separate entries in the source; they are usually repeats but may differ in a detail not shown here. Identical values can stand only once. The shares of active, inactive and inconclusive entries below differ from those in the screen. A potency beside an inconclusive call is a rough fit, not a confirmed value. Active and inactive are the calls of the source. The calls were made as follows: active = hit-call score of the fitted dose curve at least 0.9, where 1 is the maximum; inconclusive = response in the unintended direction; inactive = score below 0.9.
# Amino acid sequences for entries named in this document (tags omitted). A change or cut given only in a name is not applied to a line headed by its entry.
# UniProt Q01717: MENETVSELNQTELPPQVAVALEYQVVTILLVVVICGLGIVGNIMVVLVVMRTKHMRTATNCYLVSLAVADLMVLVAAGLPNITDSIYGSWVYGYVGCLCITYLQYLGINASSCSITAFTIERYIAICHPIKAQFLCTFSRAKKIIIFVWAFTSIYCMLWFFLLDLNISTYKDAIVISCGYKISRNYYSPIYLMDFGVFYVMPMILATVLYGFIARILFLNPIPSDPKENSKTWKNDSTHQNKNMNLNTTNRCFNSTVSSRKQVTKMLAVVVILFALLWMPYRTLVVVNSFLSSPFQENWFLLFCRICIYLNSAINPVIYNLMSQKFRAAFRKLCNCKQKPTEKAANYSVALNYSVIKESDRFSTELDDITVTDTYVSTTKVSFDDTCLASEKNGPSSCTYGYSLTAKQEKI
# Target: rat Thyrotropin Releasing Hormone Receptor (TRH), Trhr (gene 25570) (UniProt Q01717)
# Experiment: NVS_GPCR_rTRH: NovaScreen (NVS) G Protein-Coupled Receptor Assay for rat Thyrotropin Releasing Hormone Receptor (TRH) (AID 2283329);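 also: hit means lower bound tracer signal versus DMSO baseline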
# Summary of the method: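 Competitive radioligand binding on rat forebrain membrane preparations, with filtration and scintillation readout after 4 h. Primary testing in duplicate at 25 uM; actives confirmed in concentration-response. DMSO defined baseline.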
Structure (SMILES),AC50,outcome
O=[N+]([O-])c1ccccc1O,inconclusive: 122 nM and inconclusive: 160 nM,–
OCc1ccco1,inconclusive: 24.8 µM,–
CC(C)Oc1cc(-n2nc(C(C)(C)C)oc2=O)c(Cl)cc1Cl,–,inactive
CCCCC(CC)COP(=O)(Oc1ccccc1)Oc1ccccc1 (stereo not given),–,inactive
CC(C)c1cccc(C(C)C)c1O,–,inactive
O=C(NC(=O)c1c(F)cccc1F)Nc1cc(Cl)c(OC(F)(F)C(F)C(F)(F)F)cc1Cl (stereo not given),inconclusive: 1.34 µM,–
Cl/C=C\C[N+]12CN3CN(CN(C3)C1)C2,inconclusive: 25 µM,–
Oc1c(Br)cc(Br)cc1Br,inconclusive: 9.39 µM,–
O=[N+]([O-])c1ccc(Cl)c([N+](=O)[O-])c1,–,inactive
c1ccc2c(c1)CCCC2,inconclusive: 0.518 µM,–
O=CNC(N1CCN(C(NC=O)C(Cl)(Cl)Cl)CC1)C(Cl)(Cl)Cl (stereo not given),inconclusive: 25 µM,–
CCN(CCO)CCO,inconclusive: 1.71 µM,–
Nc1ccc(Cl)c(Cl)c1,inconclusive: 6.77 µM,–
Cc1ccccc1C(=O)Nc1cccc(OC(C)C)c1,–,inactive
CC(=O)C=C(C)C,inconclusive: 25 µM,–
O=S(=O)(c1ccc(O)cc1)c1ccc(O)cc1,inconclusive: 25 µM,–
CCCCCCCCSC(=O)Oc1cc(Cl)nnc1-c1ccccc1,inconclusive: 8.41 µM,–
N#CN=C(N)N,inconclusive: 25 µM,–
O=S1(=O)OCC2C(CO1)C1(Cl)C(Cl)=C(Cl)C2(Cl)C1(Cl)Cl (stereo not given),–,inactive
O=[N+]([O-])c1ccc(O)c([N+](=O)[O-])c1,–,inactive
